The assay in a line: qHTS Assay for Lipid Storage Modulators in Drosophila S3 Cells.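 On cell number change: cells counted by Cell Tracker Red CMTPX staining in the red channel.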 To be noted: BODIPY lipid droplet fluorescence, 18-24 h; for cell number change: measured here: cell count max response, cells fed with added oleic acid. A digest of the protocol:
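Drosophila S3 cells loaded with oleic acid (400 uM, as added) and compounds at several concentrations; lipid droplets imaged by 488-nm laser-scanning cytometry, 500–530 nm intensity and object ratio to cell channel. Percent activity normalized to 20 uM Triacsin C.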

[1] abbreviates: measured here: cell number channel AC50, cells fed with added oleic acid.
[2] abbreviates: measured here: lipid fluorescence (Fed channel) AC50, cells fed with added oleic acid.

61 compounds from PubChem BioAssay AID2685 (National Center for Advancing Translational Sciences (NCATS), 2010) can be followed below.

Some of the results follow. These are further read-outs of the screen, such as a control signal, another cell line or another target. No call is given for them. The list favours compounds with an active or inconclusive main result. The note in brackets gives the kind of curve behind each potency; many fits are weak.

As to `Cc1ccccc1NC(=O)Cn1c(CCC(=O)O)ccc1-c1cccs1`, the cell number change came out at 105%. Also, the AC50 under setting [1] was 0.651 µM [rising, single point]. Also, under setting [2], the AC50 was 1.16 µM [falling, single point].

On to `Cc1cc(Br)ccc1NC(=O)CN(C)C(=O)CN1C(=O)NC2(CCCC2)C1=O`, for which the cell number change was -50.2%. Also, the AC50 under setting [1] is 25.9 µM [falling, single point].

In the case of `O=C(Nc1ccccc1)Nc1nnc(COc2ccccc2F)s1`, the cell number change stood at 8.7%. Moreover, the AC50 under setting [2] was 7.31 µM [rising, partial curve, poor fit].

As for `Fc1c(F)c(F)c(CSc2nc3ccccc3[nH]2)c(F)c1F`, the AC50 runs as follows: under setting [1], 3.26 µM [rising, partial curve]; under setting [2], 0.58 µM [rising, single point].

In the case of `CCOC(=O)C1CCCN(C(=O)COc2ccc(S(=O)(=O)N(CC)c3ccccc3)cc2)C1` (stereo not drawn), the cell number change was -15.8%. The AC50 under setting [2] is 0.92 µM [falling, full curve].

On to `S=c1[nH]ncn2c1cc1oc3ccccc3c12`, for which the cell number change worked out at 42.6%. Under setting [1], the AC50 was 0.0259 µM [rising, full curve, poor fit]. The AC50 under setting [2] was 0.651 µM [rising, full curve].

For the compound `CCOC(=O)N1CCC(NC(=O)CCc2nc(-c3ccccc3F)no2)CC1`, the cell number change is -27.3%.

As for `CC(C)C(=O)NCc1cc(-c2ccc(Cl)cc2)no1`, the cell number change amounted to 19.9%.

As for `COc1ccc(CN(Cc2ccccn2)S(=O)(=O)c2ccc(-n3cnnn3)cc2)cc1`, the cell number change was found to be 10.1%. Moreover, the AC50 under setting [2] is 0.164 µM [rising, full curve, poor fit].

As for `COc1ccccc1NC(=O)C(C)OC(=O)/C(=C/c1ccccc1)NC(C)=O` (stereo not drawn), under setting [1], the AC50 is 6.51 µM [rising, single point].

`O=C(Nc1ccc(F)cc1F)C1CCCN(c2ncnc3c2nc2n3CCCCC2)C1` (stereo not drawn): the cell number change is -13.4%. The AC50 under setting [1] was 6.51 µM [rising, single point].

Regarding `O=[N+]([O-])c1cccc(-n2nnnc2CN2CCCCCC2)c1`, the AC50 under setting [2] is 1.3 µM [falling, full curve].

With `CCN(CC)C(=S)SSC(=S)N(CC)CC`, the cell number change is -50%. Also, the AC50 under setting [1] is 20.6 µM [falling, partial curve, poor fit]. For the same compound, the AC50 under setting [2] was 2.91 µM [falling, partial curve, poor fit].

For the compound `O=c1nc(NCc2ccco2)sc2ncccc12`, the cell number change was -4.87%.

Turning to `CCOCCOC(=O)C(C)Sc1n[nH]c(=O)[nH]c1=O` (stereo not drawn), the cell number change was -1.07%. Besides, the AC50 under setting [2] is 29.1 µM [falling, single point].

Consider `Cc1ccc(Nc2ncccc2C(N)=O)cc1[N+](=O)[O-]`, for which the cell number change was -11.7%. Moreover, under setting [2], the AC50 is 4.61 µM [rising, full curve].

In the case of `CCOC(=O)c1oc2cc(O)ccc2c(=O)c1-c1ccc(OC)cc1`, the cell number change is 13.1%.

On to `Cc1cccc(N2CCN(C(=O)c3ccc4c(c3)NC(=O)C(CSCc3cccc(F)c3)N4)CC2)c1C` (stereo not drawn), for which the cell number change amounted to 43.1%. The AC50 under setting [1] is 4.11 µM [rising, single point]. Moreover, the AC50 under setting [2] is 0.164 µM [falling, full curve, poor fit].

As for `N/C(=N/OCc1cccc([N+](=O)[O-])c1)c1nonc1N`, the cell number change came out at 28.8%. Further, under setting [2], the AC50 is 16.4 µM [rising, single point].

With `CCOC(=O)N1CCN(C2CC(=O)N(c3ccc(F)cc3)C2=O)CC1` (stereo not drawn), the cell number change is -2.21%. Besides, under setting [2], the AC50 was 29.1 µM [falling, single point].

Consider `COC(=O)C1=CN(c2ccc(F)c(F)c2)C=C(C(=O)OC)C1c1ccc([N+](=O)[O-])cc1`, for which the cell number change turned out to be 15.8%. Further, the AC50 under setting [2] was 8.2 µM [rising, partial curve].

On to `Cc1cccc(NCc2ccc(N(C)C)cc2)n1`, for which the cell number change came out at 5.03%.

In the case of `CC(Oc1ccccc1)C(=O)Nc1nnc(S(=O)(=O)N2CCCCC2)s1` (stereo not drawn), the cell number change is -15.2%.

Regarding `COc1ccccc1C(CNC(=O)c1ccc(NS(=O)(=O)c2ccc3c(c2)OCCO3)cc1)N(C)C` (stereo not drawn), the AC50 under setting [2] is 3.66 µM [falling, partial curve].

Take `O=c1cc(C(F)(F)F)nc(SCc2cccnc2)[nH]1`: the cell number change was -85.2%. Further, the concentration at half-maximal activity (AC50) under setting [2] is 0.651 µM [falling, partial curve, poor fit].

In the case of `Clc1ccc(COn2ccnc2)cc1Cl`, the cell number change is 6.69%.

As for `CCCc1cc(=O)[nH]c(SCc2ccc(Cl)cc2)n1`, the cell number change is -42.1%. Also, the AC50 under setting [1] was 0.651 µM [falling, full curve]. For the same compound, the AC50 under setting [2] is 0.731 µM [falling, full curve].

As to `O=C(CCCN1C(=O)/C(=C/c2cccs2)SC1=S)Nc1cccc(O)c1`, the cell number change is -6.58%. For the same compound, the AC50 under setting [2] is 35.5 µM [rising, single point].

In the case of `CC1c2cc3c(cc2CCN1C(=O)c1cccc(Cl)c1)OCCCO3` (stereo not drawn), the cell number change was -42.8%. The AC50 under setting [1] was 29.1 µM [falling, single point]. Besides, the AC50 under setting [2] is 16.4 µM [falling, partial curve].

Consider `O=c1[nH]c(C2CCCN(S(=O)(=O)c3ccc(F)cc3)C2)nc2c1nnn2Cc1ccccc1` (stereo not drawn), for which the cell number change was -17.8%.

Turning to `CCCCC(CC)Cn1c(O)c(/C=C2\C=NN=C2c2ccccc2)sc1=S` (stereo not drawn), the cell number change was -20.3%. The AC50 under setting [2] is 16.4 µM [falling, single point].

Take `N#Cc1cccc(NC(=O)N2CCC(c3nc4c(nnn4Cc4cccc(Cl)c4)c(=O)[nH]3)CC2)c1`: the cell number change is -20.8%.

With `S=C(NCCCc1ccccc1)NCc1ccccc1`, the cell number change was -0.578%. The half-maximal activity concentration (AC50) under setting [2] was 6.51 µM [rising, single point].

Turning to `CC(=O)Nc1ccccc1OCC(O)CS(=O)(=O)c1ccc(C(F)(F)F)cn1` (stereo not drawn), the cell number change stood at 19.7%. In addition, under setting [1], the AC50 is 4.11 µM [rising, single point].

Take `CCCN1CCC(=O)N([C@H](CO)Cc2ccccc2)CC1`: the cell number change is 17.1%.

In the case of `CC(=O)c1nnn(-c2nc(N3CCCC3)nc(N(c3ccccc3)c3ccccc3)n2)c1C`, the cell number change is -182%. In addition, the AC50 under setting [1] is 20.6 µM [falling, partial curve]. Further, the AC50 under setting [2] is 29.1 µM [falling, single point].

Take `CCN(CC)CCn1c(SCC(=O)NCc2ccco2)nc2c(sc3ccccc32)c1=O`: the AC50 under setting [2] was 5.8 µM [falling, partial curve].

Turning to `COc1ccc(/C=C(\NC(=O)c2ccc(Cl)cc2)C(=O)NCCCN2CCOCC2)cc1OC`, the cell number change is -11.5%. The AC50 under setting [2] is 0.116 µM [rising, single point].

In the case of `COc1ccc(NCC(O)Cn2c(C)c(C)c3ccccc32)cc1` (stereo not drawn), the cell number change is -38.5%. Under setting [1], the AC50 is 29.1 µM [falling, single point]. For the same compound, the AC50 under setting [2] is 1.84 µM [falling, partial curve].

Take `O=C(CSc1nnnn1-c1ccc(C(=O)O)cc1)NC1CC1`: the cell number change is -1.74%. Further, the AC50 under setting [1] is 1.3 µM [rising, partial curve]. For the same compound, the AC50 under setting [2] was 6.51 µM [rising, single point].

Regarding `CC1CCCCC1NC(=O)CSc1ccc([N+](=O)[O-])cc1` (stereo not drawn), the cell number change is -20.8%. Under setting [2], the AC50 is 29.1 µM [falling, single point].

For the compound `CC(=O)O[C@H]1CC[C@@]2(C)[C@@H](CC[C@@H]3[C@@H]2CC[C@]2(C)[C@@H](C(C)(C)O)C[C@@H]32)C1`, the cell number change was -18.1%. Also, the AC50 under setting [2] is 23.1 µM [falling, partial curve].

In the case of `Cc1ccc(NC(=O)Nc2ccccc2)cc1[N+](=O)[O-]`, the cell number change is -31.1%. Further, the AC50 under setting [1] was 29.1 µM [falling, single point]. Under setting [2], the AC50 was 16.4 µM [falling, partial curve, poor fit].

Regarding `COC(=O)c1ccccc1-c1ccc(/C=N/NC(=O)c2cc3ccccc3o2)o1`, the cell number change was determined as 17.4%. Moreover, the AC50 under setting [2] is 2.59 µM [rising, full curve].

In the case of `c1coc(C2Nc3ccccc3C3OCCC23)c1` (stereo not drawn), the cell number change was 4.21%.

For `Cc1ccc(NC(=O)CCCCCN2C(=O)[C@@H]3Cc4ccccc4CN3C2=O)cc1`, the cell number change was found to be 25.3%. Also, the AC50 under setting [2] is 0.0731 µM [rising, full curve, poor fit].

As for `CN(C(=O)CCNC(=O)Cn1cnc2ccccc2c1=O)c1ccccc1F`, the cell number change was -21.8%. Also, the AC50 under setting [2] was 5.17 µM [falling, single point].

Consider `CS(=O)(=O)N(CC(=O)Nc1cccnc1)c1ccc2c(c1)OCCO2`, for which the cell number change was -0.674%. Also, the AC50 under setting [2] was 0.231 µM [falling, full curve, poor fit].

In the case of `CC(C)CC(c1nnnn1Cc1ccc(F)cc1)N1CCC(C(N)=O)CC1` (stereo not drawn), the cell number change is 7.51%. Further, under setting [2], the AC50 was 6.51 µM [rising, single point].

Take `COC(=O)c1c(NC(=O)CN2C(=O)NC3(CCCCC3C)C2=O)sc2c1CCC2` (stereo not drawn): under setting [2], the AC50 is 1.64 µM [falling, partial curve].

For the compound `O=C(CSc1nc2ccccc2c(=O)[nH]1)N1CCN(c2ccccc2F)CC1`, the AC50 under setting [2] was 4.11 µM [falling, partial curve, poor fit].

For `N/C(Cc1ccc([N+](=O)[O-])cc1)=N\OC(=O)C1CCCCC1`, the cell number change is -12.6%.

`O=C(NC1CCCCC1)c1cc2c(cc1Cl)N1CCCCCC1=NS2(=O)=O`: the cell number change was -8.43%.

For the compound `Cc1ccc(CNC(=O)N[C@@H](Cc2ccccc2)C(=O)O)cc1`, the cell number change came out at 10.3%. Besides, under setting [2], the AC50 is 6.51 µM [rising, single point].

On to `NC(=O)c1c(NC(=O)COC(=O)c2ccc(S(=O)(=O)Nc3ccccc3)cc2)sc2c1CCCC2`, for which the AC50 under setting [1] is 2.59 µM [rising, partial curve, poor fit] and the AC50 under setting [2] is 3.66 µM [rising, partial curve].

For the compound `C/C=C/c1ccc(OCCN2CCc3ccccc3C2)c(OC)c1`, the cell number change was determined as 1.15%. Further, under setting [2], the AC50 was 7.31 µM [rising, partial curve].

With `COc1ccc(Nc2nnc(SC(C(=O)Nc3ccc(OC)c(Cl)c3)c3ccccc3)s2)cc1` (stereo not drawn), the cell number change is -40.1%. Further, under setting [1], the AC50 was 0.00651 µM [falling, full curve, poor fit]. Further, the AC50 under setting [2] was 23.1 µM [falling, single point].

`CC(=O)c1c(C)[nH]c(C(=O)Nc2nc(-c3ccc(Cl)cc3)cs2)c1C`: the cell number change is -15.5%.

As for `CCC(=O)Nc1c2c(nn1-c1ccc(C)cc1)CS(=O)(=O)C2`, the cell number change was -82.1%. For the same compound, the AC50 under setting [1] was 29.1 µM [falling, single point].

For `CSCCC(NC(=O)c1ccco1)C(=O)OCC(=O)N1c2ccccc2NC(=O)C1(C)C` (stereo not drawn), the cell number change is -14.7%. The AC50 under setting [2] was 18.4 µM [falling, single point].

For `COc1ccc(C(=O)COC(=O)CCCN=C2NS(=O)(=O)c3ccccc32)c(OC)c1`, the cell number change is -8.03%. Besides, under setting [2], the AC50 was 20.6 µM [falling, single point].
